Data: PubChem BioAssay
The inconclusive results got no clear call from the source; some entries with a clear call stand among them for comparison. For part of these data: A potency beside an inconclusive call is a rough fit, not a confirmed value. Calls of active or inactive are those of the source. Unless noted, cut-off not given; nearly all actives show AC50 up to about 26 µM.

Sequences of proteins named here, by UniProt entry; tags and fusion partners are left off.
UniProt P08183, whole entry, looked up: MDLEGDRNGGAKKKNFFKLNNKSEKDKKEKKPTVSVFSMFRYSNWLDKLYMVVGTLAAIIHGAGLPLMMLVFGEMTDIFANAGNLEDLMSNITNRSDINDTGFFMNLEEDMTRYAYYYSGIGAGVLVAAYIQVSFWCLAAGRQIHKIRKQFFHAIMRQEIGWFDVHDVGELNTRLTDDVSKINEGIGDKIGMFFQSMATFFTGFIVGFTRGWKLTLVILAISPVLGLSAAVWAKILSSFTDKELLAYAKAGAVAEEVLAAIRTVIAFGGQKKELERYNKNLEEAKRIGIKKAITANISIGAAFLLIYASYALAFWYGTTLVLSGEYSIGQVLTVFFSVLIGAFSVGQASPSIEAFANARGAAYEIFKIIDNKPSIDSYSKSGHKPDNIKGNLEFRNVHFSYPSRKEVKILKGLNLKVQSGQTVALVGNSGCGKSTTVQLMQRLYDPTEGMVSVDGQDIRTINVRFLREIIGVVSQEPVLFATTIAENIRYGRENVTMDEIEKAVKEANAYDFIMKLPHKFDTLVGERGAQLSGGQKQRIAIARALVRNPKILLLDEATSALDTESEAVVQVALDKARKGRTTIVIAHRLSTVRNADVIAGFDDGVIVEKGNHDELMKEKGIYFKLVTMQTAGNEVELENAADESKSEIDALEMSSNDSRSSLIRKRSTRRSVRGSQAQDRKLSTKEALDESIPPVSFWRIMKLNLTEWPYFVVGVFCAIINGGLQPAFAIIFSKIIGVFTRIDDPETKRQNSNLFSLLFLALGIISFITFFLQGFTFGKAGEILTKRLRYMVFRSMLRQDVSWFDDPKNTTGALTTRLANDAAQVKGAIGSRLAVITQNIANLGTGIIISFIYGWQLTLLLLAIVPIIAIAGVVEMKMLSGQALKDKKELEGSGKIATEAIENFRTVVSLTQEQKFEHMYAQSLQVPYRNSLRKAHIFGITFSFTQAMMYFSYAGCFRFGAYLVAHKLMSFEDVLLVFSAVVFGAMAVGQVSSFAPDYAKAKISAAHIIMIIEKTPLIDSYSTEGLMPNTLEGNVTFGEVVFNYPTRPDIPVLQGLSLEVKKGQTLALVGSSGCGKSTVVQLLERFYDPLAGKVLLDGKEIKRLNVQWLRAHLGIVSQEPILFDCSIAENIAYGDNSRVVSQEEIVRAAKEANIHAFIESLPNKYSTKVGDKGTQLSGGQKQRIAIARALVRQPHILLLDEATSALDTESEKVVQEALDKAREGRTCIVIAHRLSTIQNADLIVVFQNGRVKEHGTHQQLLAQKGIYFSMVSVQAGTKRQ

Tests used:
[1] = growth inhibition of DIPG glioma cells, dose response, cell-based, SU-DIPG-XVII, MIPE5.0, CellTiter-Glo, qHTS (AID 1347060); settings: SU-DIPG-XVII viability, CellTiter-Glo ATP luminescence;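 on AC50: cells exposed to compound for 48 hours before viability readout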
[2] = growth inhibition of DIPG glioma cells, dose response, cell-based, SU-DIPG-XIII, MIPE4.0, CellTiter-Glo, qHTS (AID 1347061; cut-off not given, nearly all actives have AC50 up to about 37 µM;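 further: cells exposed to compound for 48 hours before readout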); settings: SU-DIPG-XIII viability, CellTiter-Glo ATP luminescence
[3] = growth inhibition of DIPG glioma cells, dose response, cell-based, JHH-DIPG-1, MIPE4.0, CellTiter-Glo, qHTS (AID 1347062; cut-off not given, nearly all actives have AC50 up to about 27 µM;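 on AC50: cells exposed to compound for two days before readout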); settings: JHH-DIPG-1 viability, CellTiter-Glo ATP luminescence
[4] = growth inhibition of DIPG glioma cells, dose response, cell-based, SU-DIPG-IV, MIPE4.0, CellTiter-Glo, qHTS (AID 1347063; cut-off not given, nearly all actives have AC50 up to about 30 µM;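 further: compound exposure lasted 48 hours before the viability readout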); settings: SU-DIPG-IV viability, CellTiter-Glo ATP luminescence
[5] = growth inhibition of DIPG glioma cells, dose response, cell-based, SU-DIPG-XIII, MIPE5.0, CellTiter-Glo, qHTS (AID 1347064; cut-off not given, nearly all actives have AC50 up to about 23 µM;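 on AC50: cells exposed to compound for 48 hours before the viability read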); settings: SU-DIPG-XIII viability, CellTiter-Glo ATP luminescence
[6] = SU-DIPG-XXV glioma cell viability, MIPE5.0 library, qHTS (AID 1347068; cut-off not given, nearly all actives have IC50 up to about 30 µM;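 on IC50: cells exposed to compound for 48 hours before viability readout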)
[7] = SU-DIPG-VI glioma cell viability, MIPE4.0 library, CellTiter-Glo luminescence, qHTS (AID 1347066; cut-off not given, nearly all actives have AC50 up to about 30 µM;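 further: cells exposed to compound for 48 hours before readout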); settings: CellTiter-Glo ATP luminescence
[8] = viability loss in pontine glioma line – cell-based, SU-DIPG-XXV, MIPE5.0, CellTiter-Glo, qHTS, dose response (AID 1347065); settings: CellTiter-Glo ATP luminescence;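 further: cells exposed to compound for 48 hours before ATP readout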
[9] = JHH-DIPG-1 glioma cell viability, MIPE5.0 library, CellTiter-Glo luminescence, qHTS (AID 1347067); settings: JHH-DIPG-1 glioma viability, CellTiter-Glo ATP luminescence;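 further: cells exposed to compound for 48 hours before readout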
[10] = inhibitors of polyQ aggregate elongation, biochemical, solid-phase synthetic aggregates, QA3 (AID 1585; call rule not given here); settings: biotin-polyQ incorporation, at 100 µM, stronger effect = higher value
[11] = polyglutamine aggregation reduction, turbidity readout, qthio, single concentration 25 µM screen (AID 1588; call rule not given here); settings: at 25 µM, stronger effect = lower value
[12] = enhancers of SMN2 over SMN1 splicing, cell-based, SMN2/SMN1 luciferase reporters (AID 1598; call rule not given here); settings: SMN2 vs SMN1 luciferase splicing reporter cells; at 10 µM; stronger effect = higher value
[13] = target: ATP-dependent translocase ABCB1 (Homo sapiens) (UniProt P08183); assay: MDR1 (ABCB1) efflux transporter inhibition, cell-based (AID 377; in the data active means fluorescence slope change above about 50%; inconclusive means mostly about 31% to 49%); settings: MDR1-expressing cells, fluorescent substrate accumulation slope; stronger effect = higher value; concentration not given here

CC[C@H](NC(=O)[C@H](C)NC)C(=O)N1C[C@@H](O)C[C@H]1Cc1c(-c2[nH]c3cc(F)ccc3c2C[C@@H]2C[C@H](O)CN2C(=O)[C@H](CC)NC(=O)[C@H](C)NC)[nH]c2cc(F)ccc12
inconclusive: AC50 [3] 0.00743 µM [cytotoxic]
active: AC50 [4] 0.0662 µM
inactive: outcome [1] | outcome [2] | outcome [5] | outcome [6]

CC(C)CNc1ccnc(NCc2csc(-c3ccccc3)n2)n1
inconclusive: AC50 [2] 23.5 µM [cytotoxic] | AC50 [3] 14.8 µM [cytotoxic] | IC50 [6] 33.2 µM [cytotoxic]
active: AC50 [1] 16.6 µM | AC50 [4] 16.6 µM | AC50 [5] 14.8 µM

Nc1ccc(C(=O)c2cc3c(ccc4ccccc43)[nH]2)cc1
inconclusive: AC50 [4] 1.66 µM [cytotoxic] | AC50 [5] 9.59 µM [cytotoxic] | AC50 [7] 5.9 µM [cytotoxic] | IC50 [6] 1.21 µM [cytotoxic]
active: AC50 [1] 3.82 µM | AC50 [2] 23.5 µM | AC50 [3] 8.33 µM

CS(=O)(=O)N(Cc1ccco1)CC(O)Cn1c2ccccc2c2ccccc21 (stereo not given)
inactive: outcome [2] | outcome [8]
inconclusive: AC50 [1] 33.2 µM [cytotoxic] | AC50 [3] 3.72 µM [cytotoxic] | AC50 [4] 18.7 µM [cytotoxic]

COC(=O)C1C2CC3c4[nH]c5cc(OC)ccc5c4CCN3CC2CC(OC(=O)c2cc(OC)c(OC)c(OC)c2)C1OC (stereo not given)
inconclusive: AC50 [1] 18.6 µM [cytotoxic] | AC50 [2] 14.8 µM [cytotoxic] | AC50 [3] 23.5 µM [cytotoxic] | AC50 [4] 37.2 µM [cytotoxic] | AC50 [5] 33.2 µM [cytotoxic] | AC50 [7] 16.6 µM [cytotoxic]
inactive: outcome [6]

O=C(Nc1ccc(OC(F)(F)F)cc1)c1sccc1NCc1ccnc2ccccc12
inconclusive: AC50 [1] 10.5 µM [cytotoxic] | AC50 [2] 23.5 µM [cytotoxic] | AC50 [3] 23.5 µM [cytotoxic] | AC50 [4] 18.7 µM [cytotoxic] | AC50 [5] 4.68 µM [cytotoxic] | AC50 [7] 20.9 µM [cytotoxic]
inactive: outcome [6]

O=C(Nc1ccccc1)Nc1ccc(-c2ccc(C(=O)[C@@H]3CCC[C@H]3C(=O)O)cc2)cc1
inactive: outcome [1] | outcome [3] | outcome [9]
inconclusive: AC50 [2] 26.4 µM [cytotoxic] | AC50 [4] 11.8 µM [cytotoxic] | AC50 [5] 10.5 µM [cytotoxic]

COc1cc(NC(=O)c2ccc(-c3ccc(Cl)cc3)o2)cc(OC)c1
inactive: outcome [1] | outcome [8] | outcome [7]
active: AC50 [3] 0.935 µM | AC50 [4] 6.62 µM
inconclusive: AC50 [2] 1.32 µM [cytotoxic]

Nc1nccc(-c2ccc3noc(-c4ccc(Cl)cc4)c3c2)n1
inactive: outcome [3]
inconclusive: AC50 [1] 37.2 µM [cytotoxic] | AC50 [2] 16.6 µM [cytotoxic] | AC50 [4] 18.7 µM [cytotoxic] | AC50 [5] 37.2 µM [cytotoxic] | AC50 [9] 14.8 µM [cytotoxic] | IC50 [6] 0.525 µM [cytotoxic]

CN(C)C1CCN(C(=O)c2ccc(NC(=O)Nc3nc(N4CCOCC4)nc(N4CCOCC4)n3)cc2)CC1
inconclusive: AC50 [1] 0.468 µM [cytotoxic]
active: AC50 [2] 0.833 µM | AC50 [3] 0.166 µM | AC50 [4] 0.0469 µM | AC50 [5] 0.525 µM | IC50 [6] 0.934 µM

CC1(C)NC(=O)N(c2ccc([N+](=O)[O-])c(C(F)(F)F)c2)C1=O
inactive: outcome [3] | outcome [4] | outcome [5] | outcome [9]
inconclusive: AC50 [1] 0.263 µM [cytotoxic] | AC50 [2] 13.2 µM [cytotoxic]

CC(C)(C)Cn1c(N)nc2ccc(-c3[nH]c(C(C)(C)C)nc3-c3ccc(F)cc3)nc21
inconclusive: AC50 [1] 23.5 µM [cytotoxic] | AC50 [2] 20.9 µM [cytotoxic] | AC50 [3] 4.69 µM [cytotoxic] | AC50 [5] 37.2 µM [cytotoxic] | IC50 [6] 37.2 µM [cytotoxic]
active: AC50 [4] 26.4 µM

CCc1cc(/C(C)=N/OCc2ccc(C3CCCCC3)c(C(F)(F)F)c2)ccc1CN1CC(C(=O)O)C1
inconclusive: AC50 [1] 37.2 µM [cytotoxic] | AC50 [2] 0.00833 µM [cytotoxic] | AC50 [3] 0.296 µM [cytotoxic] | AC50 [4] 1.87 µM [cytotoxic] | AC50 [5] 37.2 µM [cytotoxic] | AC50 [9] 37.2 µM [cytotoxic] | IC50 [6] 29.5 µM [cytotoxic]

CN1C2CCC1CC(OC(=O)C(CO)c1ccccc1)C2 (stereo not given)
inconclusive: inhibition [10] 23.9% | aggregation (% of control) [11] 96.9% | SMN2/SMN1 luciferase ratio [12] 1.03 | AC50 [1] 20.9 µM [cytotoxic] | AC50 [4] 0.00469 µM | AC50 [9] 0.0235 µM [cytotoxic]
inactive: outcome [2] | outcome [3] | outcome [5] | outcome [6]

CCCCCCCc1ccc(CCc2cccc(O)c2C(=O)O)cc1
inactive: outcome [3] | outcome [4] | outcome [6]
inconclusive: AC50 [1] 18.6 µM [cytotoxic] | AC50 [2] 29.6 µM [cytotoxic] | AC50 [5] 0.661 µM [cytotoxic] | AC50 [7] 23.5 µM [cytotoxic]

CC[N+](CC)(CC)CCOc1cccc(OCC[N+](CC)(CC)CC)c1OCC[N+](CC)(CC)CC
inconclusive: fluorescence slope change [13] 42.9% | inhibition [10] 4.1% | aggregation (% of control) [11] 120% | SMN2/SMN1 luciferase ratio [12] 1.39 | AC50 [1] 20.9 µM [cytotoxic] | AC50 [5] 66.1 µM [cytotoxic]
inactive: outcome [2] | outcome [3] | outcome [4] | outcome [7]

COc1ccc(Cn2ccc3ccc(C(=O)NO)cc32)cc1
inactive: outcome [3] | outcome [4] | outcome [9]
inconclusive: AC50 [1] 37.2 µM [cytotoxic] | AC50 [2] 23.5 µM [cytotoxic] | AC50 [5] 10.5 µM [cytotoxic] | IC50 [6] 23.5 µM [cytotoxic]

COc1ccc2nc(S(=O)Cc3ncc(C)c(OC)c3C)[nH]c2c1 (stereo not given)
inconclusive: AC50 [2] 29.6 µM [cytotoxic]
inactive: outcome [1] | outcome [3] | outcome [4] | outcome [5] | outcome [9]

Nc1ncnc2c1ncn2[C@@H]1O[C@H](CO)[C@@H](O)[C@H]1O
active: AC50 [2] 18.7 µM | AC50 [3] 0.935 µM
inconclusive: AC50 [1] 37.2 µM [cytotoxic] | AC50 [4] 0.935 µM [cytotoxic] | AC50 [5] 0.00105 µM | AC50 [9] 2.09 µM [cytotoxic]
inactive: outcome [6]

O=C1NCCc2[nH]c(-c3ccncc3)cc21
active: AC50 [1] 3.72 µM | AC50 [3] 3.32 µM | AC50 [4] 2.64 µM | IC50 [6] 5.25 µM
inconclusive: AC50 [2] 2.96 µM [cytotoxic] | AC50 [5] 1.86 µM [cytotoxic]

C[C@@H]1C(=O)O[C@H]2CC34[C@H]5C[C@@H](C(C)(C)C)C36[C@@H](OC(=O)[C@@H]6O)O[C@@]4(C(=O)O5)[C@]21O (stereo not given in full)
inactive: outcome [2] | outcome [3] | outcome [4] | outcome [5] | outcome [9]
inconclusive: AC50 [1] 9.34 µM [cytotoxic] | IC50 [6] 0.525 µM

CCc1ccc(CCOc2ccc(CC3SC(=O)NC3=O)cc2)nc1 (stereo not given)
inactive: outcome [1] | outcome [3] | outcome [5]
inconclusive: AC50 [2] 23.5 µM [cytotoxic] | AC50 [4] 37.2 µM [cytotoxic] | IC50 [6] 23.5 µM

Three structures out of the list, arranged by number of heavy atoms, rising.
O=C1NCCc2[nH]c(-c3ccncc3)cc21
active: AC50 [1] 3.72 µM | AC50 [3] 3.32 µM | AC50 [4] 2.64 µM | IC50 [6] 5.25 µM
inconclusive: AC50 [2] 2.96 µM [cytotoxic] | AC50 [5] 1.86 µM [cytotoxic]

CC1(C)NC(=O)N(c2ccc([N+](=O)[O-])c(C(F)(F)F)c2)C1=O
inactive: outcome [3] | outcome [4] | outcome [5] | outcome [9]
inconclusive: AC50 [1] 0.263 µM [cytotoxic] | AC50 [2] 13.2 µM [cytotoxic]

COc1ccc2nc(S(=O)Cc3ncc(C)c(OC)c3C)[nH]c2c1 (stereo not given)
inconclusive: AC50 [2] 29.6 µM [cytotoxic]
inactive: outcome [1] | outcome [3] | outcome [4] | outcome [5] | outcome [9]

Further structures:

CCOC(=O)c1c(CSc2ccccc2)n(C)c2cc(Br)c(O)c(CN(C)C)c12
inactive: outcome [2]
inconclusive: AC50 [1] 20.9 µM [cytotoxic] | AC50 [3] 37.2 µM [cytotoxic] | AC50 [4] 23.5 µM [cytotoxic] | AC50 [5] 20.9 µM [cytotoxic] | AC50 [9] 18.6 µM [cytotoxic]

CCO[C@@H]1OC(=O)C[C@@H]1NC(=O)[C@@H]1CCCN1C(=O)[C@@H](NC(=O)c1ccc(N)c(Cl)c1)C(C)(C)C
active: AC50 [1] 23.5 µM
inconclusive: AC50 [2] 0.132 µM | AC50 [3] 2.35 µM [cytotoxic] | AC50 [4] 2.35 µM [cytotoxic]
inactive: outcome [8]

O=C(O)c1c(Cl)c(Cl)c(Cl)c(Cl)c1-c1c2cc(I)c(=O)c(I)c-2oc2c(I)c(O)c(I)cc12
active: AC50 [2] 16.6 µM | AC50 [5] 6.61 µM
inconclusive: AC50 [1] 6.61 µM [cytotoxic] | AC50 [3] 16.6 µM [cytotoxic] | AC50 [4] 9.35 µM [cytotoxic] | AC50 [7] 3.72 µM [cytotoxic] | IC50 [6] 11.8 µM

COc1ccc2c(c1)CC[C@@H]1[C@@H]2CC[C@]2(C)[C@@H](NCCCCCCN3C(=O)C=CC3=O)CC[C@@H]12
inconclusive: AC50 [2] 33.2 µM [cytotoxic] | AC50 [3] 26.4 µM [cytotoxic]
inactive: outcome [1] | outcome [4] | outcome [5] | outcome [7] | outcome [6]

CC1=C(/C=C/C(C)=C/C=C/C(C)=C\C(=O)O)C(C)(C)CCC1
inconclusive: AC50 [1] 0.0742 µM [cytotoxic] | AC50 [2] 14.8 µM [cytotoxic] | AC50 [4] 26.4 µM [cytotoxic]
inactive: outcome [3] | outcome [5] | outcome [7]
active: fluorescence slope change [13] 188%
